Measurements from PubChem BioAssay AID540275 (National Center for Advancing Translational Sciences (NCATS), 2011).
Among all 320,000 compounds or so, about 620 (0.19%) were called active. The inconclusive results got no clear call from the source; some entries with a clear call stand among them for comparison. Rule as the data show it: active = activation above about 80%; inconclusive = between about 30% and that limit; inactive = weaker than that.

Sequences of proteins named here, by UniProt entry; tags and fusion partners are left off.
UniProt Q8NER1, whole entry, looked up: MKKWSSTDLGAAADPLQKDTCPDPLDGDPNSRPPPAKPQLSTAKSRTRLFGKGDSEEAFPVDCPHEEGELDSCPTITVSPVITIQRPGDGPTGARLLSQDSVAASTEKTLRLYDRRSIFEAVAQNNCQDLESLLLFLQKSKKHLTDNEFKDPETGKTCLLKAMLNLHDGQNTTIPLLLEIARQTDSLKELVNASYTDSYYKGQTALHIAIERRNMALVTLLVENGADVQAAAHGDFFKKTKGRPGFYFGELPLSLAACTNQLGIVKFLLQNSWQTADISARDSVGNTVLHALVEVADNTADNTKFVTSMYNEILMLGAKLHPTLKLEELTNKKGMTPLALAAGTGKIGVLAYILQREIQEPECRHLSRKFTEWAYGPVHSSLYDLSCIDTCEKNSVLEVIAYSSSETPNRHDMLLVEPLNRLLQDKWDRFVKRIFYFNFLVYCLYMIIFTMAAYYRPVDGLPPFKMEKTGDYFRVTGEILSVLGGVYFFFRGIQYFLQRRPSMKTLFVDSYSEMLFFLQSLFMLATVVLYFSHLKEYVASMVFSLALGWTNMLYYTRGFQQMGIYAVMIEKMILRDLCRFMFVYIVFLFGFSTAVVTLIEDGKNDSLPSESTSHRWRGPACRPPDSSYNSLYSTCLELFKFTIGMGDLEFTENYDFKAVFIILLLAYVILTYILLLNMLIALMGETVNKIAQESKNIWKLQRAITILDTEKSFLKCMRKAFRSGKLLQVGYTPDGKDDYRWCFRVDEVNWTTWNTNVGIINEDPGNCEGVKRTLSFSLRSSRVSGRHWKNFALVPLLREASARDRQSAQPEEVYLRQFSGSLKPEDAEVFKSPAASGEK

target: Transient receptor potential cation channel subfamily V member 1 (Homo sapiens) (UniProt Q8NER1); test: HTS Assay for Compounds that Act as Agonists of the Vanilloid Receptor 1; conditions: TRPV1-expressing cells, Fluo-8 calcium influx, agonist mode; at 8.33 µM, active compounds read high; also: 0% is about no effect
How it was run: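 Cells expressing TRPV1 were dye-loaded with Fluo-8 and read kinetically: 10 s baseline, 3 min after compound (agonist portion), then 2 min after EC20 capsaicin (allosteric enhancer portion). Calcium-bound dye fluorescence at 480/520 nm.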

Compound	activation
Cc1nc2c(n1C1CCCCC1)C(=O)c1ccccc1C2=O	inactive: -3.58%
COc1ccccc1N(CC(=O)NCCN1CCOCC1)S(=O)(=O)c1ccc(C)cc1	inactive: -5.86%
Cc1ccc(CNS(=O)(=O)c2ccc(-n3cnnn3)c(C)c2)cc1	inactive: 22.1%
C=CCNC(=S)N1CCC(C(=O)c2ccc(C)cc2)CC1	inconclusive: 65.4%
CCN(CC)S(=O)(=O)c1ccc(N2CCCCC2)c(NC(=O)C2=COCCO2)c1	inconclusive: 31.9%
CCOc1ccc(NC(=O)c2ccc(N3CC4CC(C3)c3cccc(=O)n3C4)c(N)c2)cc1 (configuration not stated)	inactive: -3.88%
COc1ccccc1Oc1ccc(S(=O)(=O)N2CCOCC2)cc1S(=O)(=O)N1CCOCC1	inconclusive: 37.7%
CC(C)(C)c1ccc(-c2n[nH]c(=S)n2-c2ccccc2)cc1	inactive: 5.58%
c1ccc2c(c1)ncn2CCCCOc1ccc2c(c1)CCC2	inactive: 6.2%
COC(=O)C(Cc1c[nH]c2ccccc12)NC(=O)COc1ccc(Cl)cc1Cl (configuration not stated)	inconclusive: 49%
CC(=O)Nc1ccc(S(=O)(=O)NCCC(=O)N2CCC(Cc3ccccc3)CC2)cc1	inactive: -2.88%
CCCOc1ccc(-c2nnn(CC(=O)N3CCCCC3)n2)cc1	inconclusive: 32.8%
Cc1ccc(-c2ccc(=O)n(Cc3cc(C)ccc3C)n2)cc1	inconclusive: 50.3%
C=CCn1c(CCC)nc2ccccc21	inactive: -2.49%
CCOC(=O)COc1ccccc1C(=O)c1cnn(-c2ccccc2)c1	inconclusive: 41.2%
Cc1ccc(S(=O)(=O)NNC(=S)Nc2ccc(Cl)cc2)cc1	inactive: -2.12%
CN(C)C(=O)CSc1cnc2ccccc2n1	inconclusive: 33.9%
CC(NC(=O)c1ccco1)c1nc(-c2ccc(C(C)(C)C)cc2)no1 (configuration not stated)	inconclusive: 46.5%
O=C(Nc1cccc(Cl)c1)NC1CC2CCC1C2 (configuration not stated)	inconclusive: 55%
CCOC(=O)CSc1nc(N2CCOCC2)c2c(c1C#N)CC(C)(C)OC2	inconclusive: 45.3%
CCCc1cc(C(=O)Nc2ccc(C#N)cc2)no1	inconclusive: 41.2%
Cc1ccc(C2=NN3C(C2)c2ccccc2OC32C(=O)Nc3ccccc32)cc1 (configuration not stated)	inactive: 2.53%
COc1ccc(C(=O)Nn2c(SCC(=O)c3ccc(Cl)cc3)nc3ccccc3c2=O)cc1	inactive: 24.8%

Compound	activation
COc1cc2[nH]c3c(Cl)ncnc3c2cc1OC	inactive: -4.68%
O=C(CSCCOc1ccccc1)NCc1ccncc1	inconclusive: 42.2%
CC1c2[nH]c3ccccc3c2CCN1C(=O)Nc1ccccc1 (configuration not stated)	inconclusive: 57.4%
COc1ccccc1C(=O)N(C)c1nnc(-c2ccccc2)s1	inactive: -6.26%
S=C(NCc1ccco1)Nc1ccc(Oc2ccccc2)cc1	inconclusive: 54.4%
Cc1cc(N2CCN(c3ccc([N+](=O)[O-])c4cccnc34)CC2)c2ccccc2n1	inactive: 3.26%
C=CCNC(=O)CN(Cc1ccccc1)S(=O)(=O)c1ccc(C)cc1	inconclusive: 33.7%
CCCOc1ccc(-c2nnn(CC(=O)N3CCC(C)CC3)n2)cc1	inconclusive: 42.5%
CC(C)(C)c1ccc(OCCC(=O)OCC(=O)NCc2ccccc2)cc1	inconclusive: 39.2%
COc1ccc(S(=O)(=O)N2CCN(CC(=O)Nc3ccccc3OC)CC2)cc1	inactive: 10.4%
CS(=O)(=O)NNC(=O)c1cc2cc3ccccc3nc2s1	inactive: -3.79%
O=c1oc2ccccc2c(NCc2ccccc2F)c1[N+](=O)[O-]	inactive: -0.463%
O=C(CCNc1ccccc1)c1ccc2c(c1)OCO2	inconclusive: 55.6%
CCOc1ccccc1/C=C/c1onc(C)c1S(=O)(=O)N1CCC(C(=O)N(CC)CC)CC1	inactive: 14%
O=c1cc(-c2ccc(Cl)cc2)[nH]c2ccccc12	inconclusive: 46%
Nc1nnc(-c2cn(-c3ccccc3)nc2-c2ccc(Cl)cc2)o1	inconclusive: 32.2%
CCCCCC(=O)Nc1ccc(C(=O)COC(=O)CN2C(=O)NC3(CCCC3)C2=O)cc1	inactive: 12.7%
CCOC(=O)c1cnc2cc(Cl)c(OC)cc2c1NCC1CCCO1 (configuration not stated)	inconclusive: 48.5%
Cc1c(Cl)cccc1NC(=O)Nc1ccc(C(N)=O)cc1	inconclusive: 34.9%
O=C(CN1CCC(C(=O)c2ccc(F)cc2)CC1)Nc1ccc(F)cc1	inconclusive: 50.6%
COc1ccccc1NC(=S)NCCc1ccccc1	inconclusive: 39.1%
CC(Nc1cc(N2CCNCC2)ccc1[N+](=O)[O-])c1ccccc1 (configuration not stated)	inconclusive: 37.8%
COc1ccc(CCNC(=O)c2ccc3ccccc3n2)cc1	inconclusive: 36.7%

Compound	activation
CCCc1ccc2oc(C(=O)N3CCN(CCC(N)=O)CC3)c(C)c2c1	inconclusive: 69.5%
Brc1ccc(Nc2ncnc3[nH]ncc23)cc1	inconclusive: 69.5%
CCC(=O)N(CCC1(c2ccccc2OC)CCOC(C(C)C)C1)Cc1ccco1 (configuration not stated)	inconclusive: 45%
COC(=O)COc1ccc2oc(=O)cc(-c3cc4ccccc4o3)c2c1	inconclusive: 42.4%
CC(C)CC1Nc2ncnc(N3CCOCC3)c2N(Cc2ccc(Br)cc2)C1=O (configuration not stated)	inconclusive: 52%
Cc1ccc(NC(=S)NC2CCN(Cc3ccccc3)CC2)cc1C	inactive: 1.71%
Cc1cc(-c2ccc(S(=O)(=O)N(C)c3ccc(C)c(C)c3)s2)on1	inconclusive: 37.9%
COc1ccccc1/C=C1\SC(N2CCC(C)CC2)=NC1=O	inconclusive: 55.4%
COc1ccc(NC(=S)c2ccc(N(C)C)cc2)cc1	inconclusive: 32%
CC(=O)N1CCn2c3c(c(=O)c4cc(C)ccc42)CCC31 (configuration not stated)	inactive: -0.328%
CCOC(=O)c1cc2oc(C(c3nnnn3C3CCCCC3)N3CCOCC3)cc2[nH]1 (configuration not stated)	inconclusive: 79.4%
CC12CC3(C)CC(C)(C1)CC(NC(=O)N1CCCC1)(C2)C3	inconclusive: 48.1%
O=C(Nc1cccc(-c2csc(-c3ccccc3)n2)c1)c1cccs1	inconclusive: 60.8%
CCN(c1ccccc1)S(=O)(=O)c1ccc(OC)c(NC(=O)CN(C)C)c1	inactive: 0.682%
Cc1nc(N2CCN(c3ccccn3)CC2)c2c(C)c(C(=O)Nc3ccc(F)c(Cl)c3)sc2n1	inconclusive: 51.1%
O=C(Cc1ccc(F)cc1)NCCS(=O)(=O)N1CCN(c2cccc(Cl)c2)CC1	inconclusive: 31.5%
COc1ccc(C(CCNC(C)c2ccccc2)c2ccc(F)cc2)cc1 (configuration not stated)	inactive: 7.01%
COc1ccccc1N=CC=C1OC(C)(C)C(C)(C)O1	inactive: 1.54%
Nc1c(-c2ccc(Cl)cc2)cnn1-c1ccccc1	inconclusive: 45.5%
Cc1nnc(SCCn2c(N3CCCCCC3)nc3c2c(=O)[nH]c(=O)n3C)s1	inactive: -1.98%
CCSC1=C(C#N)C(c2ccccc2Cl)C(C(=O)c2cccs2)C(O)(C(F)(F)F)N1 (configuration not stated)	inconclusive: 45.2%
Cc1ccc(OCc2cc(C(=O)NCc3cn4ccccc4n3)no2)cc1C	inconclusive: 43.1%
CC(=O)c1ccc(NC2c3ncccc3C(=O)N2Cc2ccc(F)cc2)cc1 (configuration not stated)	inconclusive: 31.1%

Compound	activation
CCCN(CCC)C(=O)CC(c1ccccc1)C1CCOC(C)(C)C1 (configuration not stated)	inconclusive: 33.7%
COCCOC1CCN(Cc2cn(Cc3ccccc3)nc2-c2cc3ccccc3o2)CC1	inactive: 5.39%
Cc1ccc(/C=C2/Sc3ccc(C(=O)N4CCN(c5ccccn5)CC4)cc3NC2=O)cc1	inactive: -2.72%
Cc1cccc(-c2ocnc2C(=O)Nc2ccccc2NC(=O)c2ccccn2)c1	inactive: 3.41%
Cc1ccc(Cl)cc1NC(=O)CSC(N)=O	inactive: 1.02%
Cc1ccc2c(Cl)cc(Cl)c(OCC(=O)N(C(C)C)C(C)C)c2n1	inconclusive: 36.8%
O=C(Cc1ccccc1)Nc1ccc2c(c1)OC1(CCCC1)O2	inconclusive: 50.9%
CCCc1cc(C(=O)Nc2cccc([N+](=O)[O-])c2)cs1	inconclusive: 57.4%
CCN1CCN(C(c2cccs2)C(C)NS(=O)(=O)c2ccccc2)CC1 (configuration not stated)	inactive: -0.964%
Cc1cccc(NC(=O)C2C(c3ccccc3)C2(Cl)Cl)c1 (configuration not stated)	inconclusive: 65.7%
Cc1cc(C)c2c(n1)nn1c(N3CCN(c4ccccc4)CC3)cc(C)nc21	inconclusive: 43.7%
O=C(NCCc1ccccc1)c1cccc(Br)c1	inconclusive: 52.2%
CCOCCCNC(=O)c1ccc(OC)c(OC2CCN(C(C)C)CC2)c1	inactive: -7.96%
COc1cc(C(=S)N2CCOCC2)ccc1OC(=O)c1cccc(C)c1	inconclusive: 30.2%
O=C(Nc1ccncc1)C1CC1c1ccccc1 (configuration not stated)	inconclusive: 63.6%
Cc1nc2ncnn2c(C)c1Cc1cccc(C(F)(F)F)c1	inconclusive: 43.4%
CCC(=O)c1ccc(N2CCCCCC2)c(F)c1	inconclusive: 37.9%
CCOC(=O)C(NS(=O)(=O)c1ccc(C)cc1)(C(F)(F)F)P(=O)(OCC(C)C)OCC(C)C (configuration not stated)	inconclusive: 37.6%
Cc1nnsc1C(=O)NC1CCCc2c1cnn2-c1ccc(F)cc1F (configuration not stated)	inconclusive: 32.3%
CCOC(=O)c1cc2c(nc1N)CCCC2	inconclusive: 31.4%
CC12CC3CC(C)(C1)CC(C(=O)N1CCN(C(=O)c4ccco4)CC1)(C3)C2	inconclusive: 50.1%
Oc1ccc(C[C@H]2CNC(=S)N2CCc2cc(C(F)(F)F)cc(C(F)(F)F)c2)cc1	inactive: -4.27%
CCCCOc1ccccc1C(=O)N(Cc1ccc(C)o1)C1CCS(=O)(=O)C1 (configuration not stated)	inactive: 12.1%

Shown as comma-separated lines: 6 of the compounds above
Compound,activation
Cc1ccc(/C=C2/Sc3ccc(C(=O)N4CCN(c5ccccn5)CC4)cc3NC2=O)cc1,inactive: -2.72%
Cc1cccc(-c2ocnc2C(=O)Nc2ccccc2NC(=O)c2ccccn2)c1,inactive: 3.41%
Cc1ccc(Cl)cc1NC(=O)CSC(N)=O,inactive: 1.02%
Cc1ccc2c(Cl)cc(Cl)c(OCC(=O)N(C(C)C)C(C)C)c2n1,inconclusive: 36.8%
O=C(Cc1ccccc1)Nc1ccc2c(c1)OC1(CCCC1)O2,inconclusive: 50.9%
CCCc1cc(C(=O)Nc2cccc([N+](=O)[O-])c2)cs1,inconclusive: 57.4%
